Results: PubChem BioAssay AID485314 (National Center for Advancing Translational Sciences (NCATS), 2010)
Screen size: about 340,000 compounds; about 4,500 (1.3%) were called active. The shares of active, inactive and inconclusive entries below differ from those in the screen. Calls follow the shape of the dose curve; as a rule, active = well fitted inhibition curve with a large enough effect; inconclusive = small, poorly fitted or top-dose-only effect, or another doubt; inactive = no such curve, though single readings can be large or run the other way. Potencies beside an inconclusive call are fits to weak or partial responses and may not hold up.

Each compound was assayed against DNA polymerase beta (Homo sapiens) (UniProt P06746) (assay: qHTS Assay for Inhibitors of DNA Polymerase Beta). Conditions: Pol beta primer extension/strand displacement, fluorescence kinetic; activity change, negative = inhibition: at 114 µM (top of the series).
Outline: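 Reaction started by 50 nM substrate onto compound-treated Pol beta (10 nM, 15 min preincubation, room temperature); plates read at 0 min and 10 min. Normalized concentration-effect data fitted by four-parameter Hill equation.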
% is scaled to controls: 0 for no effect and ±100 for the full control effect; potency is read from the fitted curve at half-maximal effect.

Potency, inactive:
COc1ccc(CCNC(=O)c2c(O)nc3c(C)cccn3c2=O)cc1OC, Cc1cc(C)n(-c2nc3cc(Cl)ccc3nc2N2CCN(c3cccc(C)c3C)CC2)n1, CCOc1cc(/C=N/N2CCN(Cc3ccccc3)CC2)ccc1O, COc1ccc(C2(CNC(=O)C(=O)Nc3ccc(C)c(Cl)c3)CCCC2)cc1OC, CCCCCN1C(C(=O)c2ccccc2)=C(NC(=O)c2ccc(OC)c(OC)c2)c2ccccc2S1(=O)=O, O=c1oc2cc([N+](=O)[O-])ccc2nc1/C=C(O)/C=C/c1ccccc1, COc1ccc(OC)c(NC(=O)CCNS(=O)(=O)c2cccc3nonc23)c1, CC(C)CC1C(C#N)=C(N)Oc2n[nH]c(-c3ccccc3)c21 (stereo not drawn), CCCOC(=O)Nc1ccc(S(=O)(=O)Nc2ncccn2)cc1, O=C(C1CCN(S(=O)(=O)c2cnc[nH]2)CC1)N1CCN(c2ccc([N+](=O)[O-])cc2)CC1, COc1ccc(-c2nc(S(=O)(=O)c3ccc(Cl)cc3)c(N3CCCCCC3)o2)cc1, CC(=O)Nc1ccc(C(=O)Nc2nc(-c3cccnc3)cs2)cc1, Nc1nnnn1CC(=O)N/N=C/c1cc([N+](=O)[O-])ccc1O, CCCCCn1c(N)c(-c2nc3ccccc3s2)c2c([N+](=O)[O-])nn(C)c(=O)c21

Potency, inconclusive:
CSc1nc(-c2ccccc2)nc2c1COC(C)(C)C2 25.1 µM [inhibitor, partial curve, poor fit], O=C(NN1c2ccccc2CCc2ccccc21)c1ccccc1Br 8.91 µM [inhibitor, partial curve], CCc1ccc(N(C(=O)c2csnn2)C(C(=O)NC(C)(C)C)c2cccnc2)cc1 (stereo not drawn) 79.4 µM [inhibitor, single point], Cc1ccc(CCNC(=O)Cn2ncc3c([nH]c4ccccc43)c2=O)cc1 0.126 µM [inhibitor, full curve, poor fit], O=c1c2ccccc2nc(/C=C/c2ccc([N+](=O)[O-])o2)n1CCCO 89.1 µM [inhibitor, single point], Cc1cc(C)cc(NC(=O)C2CCN(S(C)(=O)=O)CC2)c1 89.1 µM [inhibitor, single point], O=C(Cc1ccc(Cl)cc1)NC1CCCCCC1 14.1 µM [inhibitor, partial curve], O=C(O)c1cc(S(=O)(=O)NC(Cc2c[nH]c3ccccc23)C(=O)O)ccc1Cl (stereo not drawn) 70.8 µM [inhibitor, partial curve], COC(=O)C1=C(C)NC(C)=C(C(=O)OCC2CCCO2)C1c1cccc(Br)c1 (stereo not drawn) 0.141 µM [inhibitor, full curve, poor fit], O=C(O)C1C2C=CC(C2)C1C(=O)NCc1ccc(Cl)c(Cl)c1 (stereo not drawn) 5.01 µM [inhibitor, full curve], Cc1cc(C(=O)NCc2ccco2)on1 1.78 µM [inhibitor, partial curve, poor fit], COc1cccc(/C=N/NC(=O)N/N=C/c2cccc(OC)c2O)c1O 44.7 µM [inhibitor, partial curve], CC(C)CNC(=O)NC(=O)CSc1nc2ccccc2n1CC(C)C 89.1 µM [inhibitor, single point], CCc1ccc(C(C(=O)NC2CCCC2)N(C(=O)c2csnn2)C2CC2)cc1 (stereo not drawn) 100 µM [inhibitor, single point], COc1ccc(Cn2nnnc2CN2CCc3ccccc3C2)cc1 0.1 µM [inhibitor, full curve, poor fit], Cc1cc(C)c(S(=O)(=O)Nc2ccc(O)cc2)c(C)c1 89.1 µM [inhibitor, single point], COc1ccc(-c2nc(NC(=O)C3CC(=O)N(c4ccc5c(c4)OCCO5)C3)sc2C)cc1 (stereo not drawn) 28.2 µM [inhibitor, full curve], COc1ccc(S(=O)(=O)CCC(=O)Nc2cc(C)ccc2OC)cc1 89.1 µM [inhibitor, single point], Cc1cccc(C)c1N1CCN(S(=O)(=O)N2CCOCC2)CC1 31.6 µM [inhibitor, single point], Cc1ccc(Nc2c(-c3ccco3)nc3ccc(C)cn23)cc1 89.1 µM [inhibitor, single point], COc1ccc(NC(=O)Nc2ccc(Cc3ccncc3)cc2)cc1OC 0.398 µM [inhibitor, full curve], O=C(Nc1ccc2nc(-c3cccnc3)[nH]c2c1)c1ccco1 20 µM [inhibitor, full curve], CC(=O)c1c(C(C)=O)c(C)n(NC(=O)c2ccncc2)c1C 0.891 µM [inhibitor, full curve, poor fit], COC(=O)C1=C(CSc2nc3c(cc2C#N)CN(C)CC3)OC(N)=C(C#N)C1c1ccc(F)cc1 (stereo not drawn) 79.4 µM [inhibitor, single point], Cc1ccc(S(=O)(=O)NNc2ccccc2)c(C)c1 20 µM [inhibitor, full curve, poor fit], COC(=O)C1=C(N)OC2=C(C(=O)CCC2)C1c1cccnc1 (stereo not drawn) 79.4 µM [inhibitor, single point], S=C(Nc1ccc(Cl)cc1)NC1CCN(Cc2ccccc2)CC1 89.1 µM [inhibitor, single point], COC(=O)c1ccc([C@@H]2Nc3c(cccc3C(F)(F)F)[C@@H]3C=CC[C@@H]32)cc1 1 µM [inhibitor, partial curve], COc1ccc(-c2cc3ccc(OCC(=O)NCC4CCC(C(=O)O)CC4)cc3oc2=O)cc1 (stereo not drawn) 1 µM [inhibitor, full curve, poor fit], COc1cccc(-c2cnc(NCc3cc(Cl)ccc3O)n2C)c1 25.1 µM [inhibitor, single point], O=C(Nc1cccc(F)c1)Nc1ccnn1C1CCN(C(=O)c2ccccn2)CC1 4.47 µM [inhibitor, single point], Cc1ccc(OCCSc2nc(-c3cccs3)nc3cc(=O)[nH]n23)cc1Cl 31.6 µM [inhibitor, partial curve, poor fit], O=[N+]([O-])c1cc(Cl)cc(/C=N/Nc2nc3ccccc3s2)c1O 1.78 µM [inhibitor, full curve], CN(C)/C=C1/NC(=S)NC1=O 22.4 µM [inhibitor, partial curve], COc1ccc(OCCC(=O)OCC(=O)NC(=O)NC2CCCCC2)cc1 0.224 µM [inhibitor, full curve, poor fit], Nc1cccc(Oc2c(F)c(F)c(Oc3cccc(N)c3)c(F)c2F)c1 89.1 µM [inhibitor, single point], CCc1cc(=O)oc2c3c(cc(OCC(=O)NCCCn4ccnc4)c12)OC(C)(C)CC3 89.1 µM [inhibitor, single point], O=C(Nc1ccc(N2CCN(C(=O)c3ccco3)CC2)cc1)c1ccc([N+](=O)[O-])cc1Cl 3.55 µM [inhibitor, single point], O=C(O)c1cc(C2CC2)nc2ccccc12 79.4 µM [inhibitor, single point], CC(=O)c1cc(CN2CCC(n3nccc3NC(=O)c3ccccc3)CC2)cs1 0.141 µM [inhibitor, full curve, poor fit], CC1CCC(NC(=O)c2ccc3c(c2)N(Cc2ccccc2F)C(=O)c2ccccc2S3)CC1 (stereo not drawn) 100 µM [inhibitor, single point], COc1ccc(CC(=O)NNC(=O)COc2ccc3ccccc3c2)cc1 39.8 µM [inhibitor, partial curve], Cc1ccc(NC(=O)C2Oc3ccccc3OC2C)cc1 (stereo not drawn) 0.794 µM [inhibitor, full curve, poor fit], CCOC(=O)CSc1cc(C)c(C#N)c2nc3ccccc3n12 79.4 µM [inhibitor, single point], Cc1cc2c(ncn2C)c(NS(=O)(=O)c2cc(Cl)ccc2Cl)c1C 0.794 µM [inhibitor, full curve, poor fit]

Potency, active:
O=C(O)CSc1cc(NS(=O)(=O)c2cccc([N+](=O)[O-])c2)c2ccccc2c1O 79.4 µM, CCCN(CCC)CCCNC(=O)c1cc2c(-c3ccc(Cl)cc3)nn(C)c2s1 20 µM, O=Nc1c2cc(-c3ccccc3)[nH]nc-2c2ccccc12 39.8 µM, NS(=O)(=O)c1cc(C(=O)N=Nc2c(O)[nH]c3ccccc23)ccc1Cl 22.4 µM, Cc1cc(/C=C2\SC(=S)NC2=O)c(C)n1-c1ccc(O)cc1 50.1 µM, Cc1cc(C)c2nc3nc(C)cc(C)c3c(N)c2c1 39.8 µM, Cc1ccc(CCNC(=O)c2cc3c(s2)-c2ccccc2OC3)cc1 14.1 µM

Activity change, negative = inhibition, inconclusive:
O=C(O)c1ccc2c(=O)n3cc(C(=O)c4ccccc4O)cc(Cl)c3nc2c1 -48.4% [inhibitor], O=C(Nc1nc2cc3c(cc2s1)OCO3)c1ccco1 -159% [inhibitor]
